# Experimental data taken from the supplement of paper PMC8728848.
# The list shows a part of the results.
# B1: GS7807F-bth-514-18-514 (Bacteroides thetaiotaomicron) (protein)
# chain: AGSCTGNFEEYNTNQFQIHEADPSTLMKSMIETIVNIQQNDSQMMDQMVGQLGGYLTCANVWSGTNFGTFNQSDAWNAGPWNTNFEKIYGNFFQIQEATNESGHYYAFARMIRAITMLRVADCYGPMPYSQVKKGNFYVAYDTEEQVYKNIMEDFASAANVLYNYYKDTNGNAPLASNDPVFSGNYANWARLANSMRLRVAIRISTAYPEMAKENAEAAASHEAGLIEANNDNAMMDCGSQTNPYQLAAVSWGDLRVNANIVDYMNGYGDPRMSKYFNHSTFTGHTQEYVGMRSGEDGFAKSDVAGYSIPAITGTSKLLVFCAAETAFLRAEGKLKNWSVGNKSAKEYYEEGIKLSMEQYGTTMPDNYLTNTEKPTVSHNNDPRGHAYTISNTVAVAWNDNNEEENLQRIITQKWIANYPLGLEAWAEYRRTGYPELYPCIDNLSPSGVDSKRGMRRLRFPYTEVQNNHSNYQQGVSYLKNGGPDNEATDLSWGKTN
# Columns and labels:
# Experiment in all cases: glycan array binding signal (z-score within array); higher = stronger binding
# Conditions in all cases: glycan notation: IUPAC condensed, linker removed
# [1] = target: Gal(a1-3)Gal(b1-4)GlcNAc(b1-2)Man
# In short: (§1)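 Columns mapping to the same glycan were averaged after glycan names were converted to IUPAC-condensed notation. The data come from 3228 arrays in the Consortium for Functional Glycomics database, limited to those with an available protein sequence. Binding is reported as a within-array Z-score averaged across arrays of one protein sequence and across linkers.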
# [2] = target: Gal(a1-3)Gal(b1-4)GlcNAc(b1-2)Man(a1-3)[Gal(a1-3)Gal(b1-4)GlcNAc(b1-2)Man(a1-6)]Man(b1-4)GlcNAc(b1-4)GlcNAc
# In short: as §1
# [3] = target: Gal(a1-3)Gal(b1-4)GlcNAc(b1-3)GalNAc
# In short: as §1
# [4] = target: Gal(a1-3)Gal(b1-4)GlcNAc(b1-6)GalNAc
# In short: as §1
# [5] = target: Gal(a1-3)Gal(b1-4)[Fuc(a1-3)]GlcNAc
# In short: as §1
# [6] = target: Gal(a1-3)Gal(b1-4)[Fuc(a1-3)]GlcNAc(b1-2)Man(a1-3)[Gal(a1-3)Gal(b1-4)[Fuc(a1-3)]GlcNAc(b1-2)Man(a1-6)]Man(b1-4)GlcNAc(b1-4)GlcNAc
# In short: as §1
# [7] = target: Gal(a1-3)GalNAc
# In short: as §1
# [8] = target: Gal(a1-3)[Gal(a1-4)]Gal(b1-4)GlcNAc
# In short: as §1
# [9] = target: Gal(a1-4)Gal(b1-3)GlcNAc(b1-2)Man(a1-3)[Gal(a1-4)Gal(b1-3)GlcNAc(b1-2)Man(a1-6)]Man(b1-4)GlcNAc(b1-4)GlcNAc
# In short: as §1
# [10] = target: Gal(a1-4)Gal(b1-4)Glc
# In short: as §1
# [11] = target: Gal(a1-4)Gal(b1-4)GlcNAc
# In short: as §1
# [12] = target: Gal(a1-4)Gal(b1-4)GlcNAc(b1-2)Man(a1-3)[Gal(a1-4)Gal(b1-4)GlcNAc(b1-2)Man(a1-6)]Man(b1-4)GlcNAc(b1-4)GlcNAc
# In short: as §1
# [13] = target: Gal(a1-4)Gal(b1-4)GlcNAc(b1-3)Gal(b1-4)Glc
# In short: as §1
# [14] = target: Gal(a1-4)GlcNAc
# In short: as §1
# [15] = target: Gal(a1-6)Glc
# In short: as §1
# [16] = target: Gal(b1-2)Gal
# In short: as §1
# [17] = target: Gal(b1-3)Gal
# In short: as §1
# [18] = target: Gal(b1-3)Gal(b1-4)GlcNAc
# In short: as §1
# [19] = target: Gal(b1-3)GalNAc
# In short: as §1
# [20] = target: Gal(b1-3)GalNAc(a1-3)[Fuc(a1-2)]Gal(b1-4)Glc
# In short: as §1
# [21] = target: Gal(b1-3)GalNAc(a1-3)[Fuc(a1-2)]Gal(b1-4)GlcNAc
# In short: as §1
# [22] = target: Gal(b1-3)GalNAc(b1-3)Gal
# In short: as §1
# [23] = target: Gal(b1-3)GalNAc(b1-3)Gal(a1-4)Gal(b1-4)Glc
# In short: as §1
# [24] = target: Gal(b1-3)GalNAc(b1-4)Gal(b1-4)Glc
# In short: as §1
# [25] = target: Gal(b1-3)GalNAc(b1-4)[Neu5Ac(a2-3)]Gal(b1-4)Glc
# In short: as §1
# [26] = target: Gal(b1-3)GlcNAc
# In short: as §1
# [27] = target: Gal(b1-3)GlcNAc(a1-3)Gal(b1-4)GlcNAc
# In short: as §1
# [28] = target: Gal(b1-3)GlcNAc(a1-6)Gal(b1-4)GlcNAc
# In short: as §1
# [29] = target: Gal(b1-3)GlcNAc(b1-2)Man
# In short: as §1
# [30] = target: Gal(b1-3)GlcNAc(b1-2)Man(a1-3)[Gal(b1-3)GlcNAc(b1-2)Man(a1-6)]Man(b1-4)GlcNAc(b1-4)GlcNAc
# In short: as §1
# [31] = target: Gal(b1-3)GlcNAc(b1-2)Man(a1-3)[Gal(b1-3)GlcNAc(b1-2)Man(a1-6)]Man(b1-4)GlcNAc(b1-4)[Fuc(a1-6)]GlcNAc
# In short: as §1
# [32] = target: Gal(b1-3)GlcNAc(b1-2)Man(a1-3)[GlcNAc(b1-4)][Gal(b1-3)GlcNAc(b1-2)Man(a1-6)]Man(b1-4)GlcNAc(b1-4)GlcNAc
# In short: as §1
# [33] = target: Gal(b1-3)GlcNAc(b1-2)[Gal(b1-3)GlcNAc(b1-6)]Man(a1-6)[Gal(b1-3)GlcNAc(b1-2)Man(a1-3)]Man(b1-4)GlcNAc(b1-4)GlcNAc
# In short: as §1
# [34] = target: Gal(b1-3)GlcNAc(b1-3)Gal(b1-3)GlcNAc
# In short: as §1
# [35] = target: Gal(b1-3)GlcNAc(b1-3)Gal(b1-4)Glc
# In short: as §1
# [36] = target: Gal(b1-3)GlcNAc(b1-3)Gal(b1-4)GlcNAc
# In short: as §1
# [37] = target: Gal(b1-3)GlcNAc(b1-3)Gal(b1-4)GlcNAc(b1-2)Man(a1-3)[Gal(b1-3)GlcNAc(b1-3)Gal(b1-4)GlcNAc(b1-2)Man(a1-6)]Man(b1-4)GlcNAc(b1-4)GlcNAc
# In short: as §1
# [38] = target: Gal(b1-3)GlcNAc(b1-3)Gal(b1-4)GlcNAc(b1-2)[Gal(b1-3)GlcNAc(b1-3)Gal(b1-4)GlcNAc(b1-6)]Man(a1-6)[Gal(b1-3)GlcNAc(b1-3)Gal(b1-4)GlcNAc(b1-2)Man(a1-3)]Man(b1-4)GlcNAc(b1-4)[Fuc(a1-6)]GlcNAc
# In short: as §1
# [39] = target: Gal(b1-3)GlcNAc(b1-3)Gal(b1-4)GlcNAc(b1-3)Gal(b1-4)GlcNAc(b1-2)[Gal(b1-3)GlcNAc(b1-3)Gal(b1-4)GlcNAc(b1-3)Gal(b1-4)GlcNAc(b1-6)]Man(a1-6)[Gal(b1-3)GlcNAc(b1-3)Gal(b1-4)GlcNAc(b1-3)Gal(b1-4)GlcNAc(b1-2)Man(a1-3)]Man(b1-4)GlcNAc(b1-4)[Fuc(a1-6)]GlcNAc
# In short: as §1
# [40] = target: Gal(b1-3)GlcNAc(b1-3)Gal(b1-4)GlcNAc(b1-6)[Gal(b1-3)GlcNAc(b1-3)]Gal(b1-4)Glc
# In short: as §1
# [41] = target: Gal(b1-3)GlcNAc(b1-3)Gal(b1-4)[Fuc(a1-3)]GlcNAc
# In short: as §1
# [42] = target: Gal(b1-3)GlcNAc(b1-3)Gal(b1-4)[Fuc(a1-3)]GlcNAc(b1-6)[Gal(b1-3)GlcNAc(b1-3)]Gal(b1-4)Glc
# In short: as §1
# [43] = target: Gal(b1-3)GlcNAc(b1-3)GalNAc
# In short: as §1
# [44] = target: Gal(b1-3)GlcNAc(b1-6)Gal(b1-4)GlcNAc
# In short: as §1
# [45] = target: Gal(b1-3)GlcNAc(b1-6)GalNAc
# In short: as §1
binder,measurement,setting,value
B1,glycan array binding signal (z-score),[1],-0.58
same,glycan array binding signal (z-score),[2],1.17
same,glycan array binding signal (z-score),[3],0.812
same,glycan array binding signal (z-score),[4],-0.492
same,glycan array binding signal (z-score),[5],-0.54
same,glycan array binding signal (z-score),[6],0.615
same,glycan array binding signal (z-score),[7],-0.793
same,glycan array binding signal (z-score),[8],2.02
same,glycan array binding signal (z-score),[9],0.06
same,glycan array binding signal (z-score),[10],1.96
same,glycan array binding signal (z-score),[11],0.384
same,glycan array binding signal (z-score),[12],2.17
same,glycan array binding signal (z-score),[13],-0.367
same,glycan array binding signal (z-score),[14],-0.705
same,glycan array binding signal (z-score),[15],-0.466
same,glycan array binding signal (z-score),[16],-0.545
same,glycan array binding signal (z-score),[17],-0.099
same,glycan array binding signal (z-score),[18],0.501
same,glycan array binding signal (z-score),[19],0.72
same,glycan array binding signal (z-score),[20],1.32
same,glycan array binding signal (z-score),[21],0.382
same,glycan array binding signal (z-score),[22],1.13
same,glycan array binding signal (z-score),[23],0.006
same,glycan array binding signal (z-score),[24],0.212
same,glycan array binding signal (z-score),[25],3.23
same,glycan array binding signal (z-score),[26],0.308
same,glycan array binding signal (z-score),[27],0.716
same,glycan array binding signal (z-score),[28],-0.717
same,glycan array binding signal (z-score),[29],0.647
same,glycan array binding signal (z-score),[30],2.03
same,glycan array binding signal (z-score),[31],0.491
same,glycan array binding signal (z-score),[32],1.19
same,glycan array binding signal (z-score),[33],1.13
same,glycan array binding signal (z-score),[34],-0.612
same,glycan array binding signal (z-score),[35],-0.157
same,glycan array binding signal (z-score),[36],-0.41
same,glycan array binding signal (z-score),[37],-0.007
same,glycan array binding signal (z-score),[38],1.69
same,glycan array binding signal (z-score),[39],1.85
same,glycan array binding signal (z-score),[40],0.997
same,glycan array binding signal (z-score),[41],-0.065
same,glycan array binding signal (z-score),[42],-0.274
same,glycan array binding signal (z-score),[43],1.19
same,glycan array binding signal (z-score),[44],0.12
same,glycan array binding signal (z-score),[45],1.49
